1 substance from PMC10715081 can be followed below.

Amino acid sequences for entries named in this document (tags omitted). Residues count along the entry.
UniProt Q8JUX6, residues 536-1333: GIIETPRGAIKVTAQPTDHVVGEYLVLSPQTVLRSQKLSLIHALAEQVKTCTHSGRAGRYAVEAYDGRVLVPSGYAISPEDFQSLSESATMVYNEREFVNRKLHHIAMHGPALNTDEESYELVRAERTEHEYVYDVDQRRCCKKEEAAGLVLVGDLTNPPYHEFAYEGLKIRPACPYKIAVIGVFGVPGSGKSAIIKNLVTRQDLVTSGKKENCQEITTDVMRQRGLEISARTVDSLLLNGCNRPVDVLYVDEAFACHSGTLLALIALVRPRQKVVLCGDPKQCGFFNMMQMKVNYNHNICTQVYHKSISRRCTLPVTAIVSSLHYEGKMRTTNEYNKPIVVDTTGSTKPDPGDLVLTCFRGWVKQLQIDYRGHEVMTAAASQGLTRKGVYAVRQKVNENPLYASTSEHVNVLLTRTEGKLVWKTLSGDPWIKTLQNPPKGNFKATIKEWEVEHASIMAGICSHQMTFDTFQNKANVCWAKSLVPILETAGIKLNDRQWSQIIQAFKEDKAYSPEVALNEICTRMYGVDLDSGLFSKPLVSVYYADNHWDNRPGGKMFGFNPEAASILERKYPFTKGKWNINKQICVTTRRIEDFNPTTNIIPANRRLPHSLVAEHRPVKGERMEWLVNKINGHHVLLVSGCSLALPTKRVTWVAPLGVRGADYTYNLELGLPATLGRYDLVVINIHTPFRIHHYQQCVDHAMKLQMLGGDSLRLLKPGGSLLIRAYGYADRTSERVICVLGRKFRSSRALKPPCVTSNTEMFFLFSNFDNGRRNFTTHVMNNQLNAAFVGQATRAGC
UniProt P35221: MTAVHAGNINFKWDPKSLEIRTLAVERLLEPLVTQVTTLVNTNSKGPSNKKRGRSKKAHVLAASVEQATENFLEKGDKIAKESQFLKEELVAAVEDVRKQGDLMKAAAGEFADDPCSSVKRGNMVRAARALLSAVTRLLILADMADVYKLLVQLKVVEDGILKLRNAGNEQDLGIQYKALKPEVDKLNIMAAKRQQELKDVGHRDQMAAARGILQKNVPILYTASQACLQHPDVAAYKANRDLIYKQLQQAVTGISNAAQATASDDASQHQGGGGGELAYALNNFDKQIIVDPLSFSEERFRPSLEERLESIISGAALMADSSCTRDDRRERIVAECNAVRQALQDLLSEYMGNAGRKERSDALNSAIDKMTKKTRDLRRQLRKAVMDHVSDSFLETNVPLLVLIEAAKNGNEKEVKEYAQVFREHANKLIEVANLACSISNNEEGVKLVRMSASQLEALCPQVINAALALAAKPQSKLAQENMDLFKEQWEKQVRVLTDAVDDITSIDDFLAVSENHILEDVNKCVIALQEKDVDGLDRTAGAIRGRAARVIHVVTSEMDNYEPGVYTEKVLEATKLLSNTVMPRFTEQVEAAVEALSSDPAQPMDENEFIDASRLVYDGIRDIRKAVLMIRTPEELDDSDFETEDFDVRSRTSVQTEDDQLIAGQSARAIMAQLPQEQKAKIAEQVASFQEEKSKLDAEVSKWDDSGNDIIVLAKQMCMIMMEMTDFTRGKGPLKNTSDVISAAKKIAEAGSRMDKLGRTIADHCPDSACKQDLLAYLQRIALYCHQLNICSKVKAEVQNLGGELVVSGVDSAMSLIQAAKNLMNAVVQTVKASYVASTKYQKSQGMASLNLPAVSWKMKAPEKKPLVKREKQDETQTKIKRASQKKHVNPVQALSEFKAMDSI

For the assay, the target named is CHIKV-nsP2 (of the mass spectrometry experiment) (Chikungunya virus) (UniProt Q8JUX6). Kind of assay: affinity purification with mass spectrometry.

No constants are given. Whether binding was seen depends on the method and setting. Binding seen in cells or lysates may run through a third protein. These calls come from enrichment with a bait or labelling near it, and not all partners need be listed.

Take “Catenin-α-1 (hit of the mass spectrometry of CHIKV-nsP2 partners) (from UniProt P35221 1-906)”: the binding entry was “binds”.
